Data reported in PMC12037078.

Protein sequences, listed by entry. Tags and fused reporters are not part of them.
UniProt P54105: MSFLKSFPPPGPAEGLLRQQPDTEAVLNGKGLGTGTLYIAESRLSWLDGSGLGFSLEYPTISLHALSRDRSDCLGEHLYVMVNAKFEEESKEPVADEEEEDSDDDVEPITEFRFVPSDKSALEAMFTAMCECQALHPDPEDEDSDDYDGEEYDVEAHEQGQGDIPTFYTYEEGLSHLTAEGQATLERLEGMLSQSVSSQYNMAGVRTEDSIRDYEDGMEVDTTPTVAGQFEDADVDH
UniProt P98175: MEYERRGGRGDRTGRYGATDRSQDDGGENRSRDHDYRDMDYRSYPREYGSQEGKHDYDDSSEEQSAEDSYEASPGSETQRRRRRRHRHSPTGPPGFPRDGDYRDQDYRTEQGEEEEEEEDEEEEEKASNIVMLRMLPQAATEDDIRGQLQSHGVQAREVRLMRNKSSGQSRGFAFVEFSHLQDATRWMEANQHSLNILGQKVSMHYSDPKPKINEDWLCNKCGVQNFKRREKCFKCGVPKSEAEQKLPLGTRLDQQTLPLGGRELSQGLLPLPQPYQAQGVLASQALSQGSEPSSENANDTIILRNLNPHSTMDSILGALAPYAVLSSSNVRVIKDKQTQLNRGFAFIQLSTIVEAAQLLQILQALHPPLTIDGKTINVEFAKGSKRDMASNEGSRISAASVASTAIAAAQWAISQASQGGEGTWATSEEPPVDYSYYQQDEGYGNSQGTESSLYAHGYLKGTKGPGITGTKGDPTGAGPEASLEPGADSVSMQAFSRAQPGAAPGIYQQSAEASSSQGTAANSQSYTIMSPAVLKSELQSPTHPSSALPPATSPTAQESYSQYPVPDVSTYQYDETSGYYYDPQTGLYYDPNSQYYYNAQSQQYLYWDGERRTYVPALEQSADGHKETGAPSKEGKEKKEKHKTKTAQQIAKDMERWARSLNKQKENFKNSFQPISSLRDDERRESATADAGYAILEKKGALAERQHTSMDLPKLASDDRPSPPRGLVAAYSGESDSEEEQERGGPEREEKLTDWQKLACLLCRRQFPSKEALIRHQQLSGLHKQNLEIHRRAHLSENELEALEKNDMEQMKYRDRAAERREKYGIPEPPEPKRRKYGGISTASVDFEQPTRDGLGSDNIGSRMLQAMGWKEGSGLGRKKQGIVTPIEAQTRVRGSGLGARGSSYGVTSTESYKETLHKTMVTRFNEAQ
UniProt Q96CX2: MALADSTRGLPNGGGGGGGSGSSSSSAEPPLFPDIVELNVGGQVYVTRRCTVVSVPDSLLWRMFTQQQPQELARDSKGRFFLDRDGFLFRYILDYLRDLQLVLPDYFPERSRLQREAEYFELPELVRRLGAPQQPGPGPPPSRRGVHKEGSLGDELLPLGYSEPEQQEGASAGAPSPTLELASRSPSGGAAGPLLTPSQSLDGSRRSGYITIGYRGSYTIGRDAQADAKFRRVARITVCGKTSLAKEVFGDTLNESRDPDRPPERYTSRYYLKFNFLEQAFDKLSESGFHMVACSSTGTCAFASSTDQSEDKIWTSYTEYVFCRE

B1: MAGED1 (endogenous, HEK293T) (protein, UniProt Q9Y5V3 1-778)
chain: MAQKMDCGAGLLGFQAEASVEDSALLMQTLMEAIQISEAPPTNQATAAASPQSSQPPTANEMADIQVSAAAARPKSAFKVQNATTKGPNGVYDFSQAHNAKDVPNTQPKAAFKSQNATPKGPNAAYDFSQAATTGELAANKSEMAFKAQNATTKVGPNATYNFSQSLNANDLANSRPKTPFKAWNDTTKAPTADTQTQNVNQAKMATSQADIETDPGISEPDGATAQTSADGSQAQNLESRTIIRGKRTRKINNLNVEENSSGDQRRAPLAAGTWRSAPVPVTTQNPPGAPPNVLWQTPLAWQNPSGWQNQTARQTPPARQSPPARQTPPAWQNPVAWQNPVIWPNPVIWQNPVIWPNPIVWPGPVVWPNPLAWQNPPGWQTPPGWQTPPGWQGPPDWQGPPDWPLPPDWPLPPDWPLPTDWPLPPDWIPADWPIPPDWQNLRPSPNLRPSPNSRASQNPGAAQPRDVALLQERANKLVKYLMLKDYTKVPIKRSEMLRDIIREYTDVYPEIIERACFVLEKKFGIQLKEIDKEEHLYILISTPESLAGILGTTKDTPKLGLLLVILGVIFMNGNRASEAVLWEALRKMGLRPGVRHPLLGDLRKLLTYEFVKQKYLDYRRVPNSNPPEYEFLWGLRSYHETSKMKVLRFIAEVQKRDPRDWTAQFMEAADEALDALDAAAAEAEARAEARTRMGIGDEAVSGPWSWDDIEFELLTWDEEGDFGDPWSRIPFTFWARYHQNARSRFPQTFAGPIIGPGGTASANFAANFGAIGFFWVE
B2: USP15 (enzyme, UniProt Q9Y4E8 1-981)
chain: MAEGGAADLDTQRSDIATLLKTSLRKGDTWYLVDSRWFKQWKKYVGFDSWDKYQMGDQNVYPGPIDNSGLLKDGDAQSLKEHLIDELDYILLPTEGWNKLVSWYTLMEGQEPIARKVVEQGMFVKHCKVEVYLTELKLCENGNMNNVVTRRFSKADTIDTIEKEIRKIFSIPDEKETRLWNKYMSNTFEPLNKPDSTIQDAGLYQGQVLVIEQKNEDGTWPRGPSTPKSPGASNFSTLPKISPSSLSNNYNNMNNRNVKNSNYCLPSYTAYKNYDYSEPGRNNEQPGLCGLSNLGNTCFMNSAIQCLSNTPPLTEYFLNDKYQEELNFDNPLGMRGEIAKSYAELIKQMWSGKFSYVTPRAFKTQVGRFAPQFSGYQQQDCQELLAFLLDGLHEDLNRIRKKPYIQLKDADGRPDKVVAEEAWENHLKRNDSIIVDIFHGLFKSTLVCPECAKISVTFDPFCYLTLPLPMKKERTLEVYLVRMDPLTKPMQYKVVVPKIGNILDLCTALSALSGIPADKMIVTDIYNHRFHRIFAMDENLSSIMERDDIYVFEININRTEDTEHVIIPVCLREKFRHSSYTHHTGSSLFGQPFLMAVPRNNTEDKLYNLLLLRMCRYVKISTETEETEGSLHCCKDQNINGNGPNGIHEEGSPSEMETDEPDDESSQDQELPSENENSQSEDSVGGDNDSENGLCTEDTCKGQLTGHKKRLFTFQFNNLGNTDINYIKDDTRHIRFDDRQLRLDERSFLALDWDPDLKKRYFDENAAEDFEKHESVEYKPPKKPFVKLKDCIELFTTKEKLGAEDPWYCPNCKEHQQATKKLDLWSLPPVLVVHLKRFSYSRYMRDKLDTLVDFPINDLDMSEFLINPNAGPCRYNLIAVSNHYGGMGGGHYTAFAKNKDDGKWYYFDDSSVSTASEDQIVSKAAYVLFYQRQDTFSGTGFFPLDRETKGASAATGIPLESDEDSNDNDNDIENENCMHTN
B3: COPRS (protein, UniProt Q9NQ92 1-184)
chain: MDLQAAGAQAQGAAEPSRGPPLPSARGAPPSPEAGFATADHSSQERETEKAMDRLARGTQSIPNDSPARGEGTHSEEEGFAMDEEDSDGELNTWELSEGTNCPPKEQPGDLFNEDWDSELKADQGNPYDADDIQESISQELKPWVCCAPQGDMIYDPSWHHPPPLIPYYSKMVFETGQFDDAED
B4: RIOK1 (protein, UniProt Q9BRS2 1-568)
chain: MDYRRLLMSRVVPGQFDDADSSDSENRDLKTVKEKDDILFEDLQDNVNENGEGEIEDEEEEGYDDDDDDWDWDEGVGKLAKGYVWNGGSNPQANRQTSDSSSAKMSTPADKVLRKFENKINLDKLNVTDSVINKVTEKSRQKEADMYRIKDKADRATVEQVLDPRTRMILFKMLTRGIITEINGCISTGKEANVYHASTANGESRAIKIYKTSILVFKDRDKYVSGEFRFRHGYCKGNPRKMVKTWAEKEMRNLIRLNTAEIPCPEPIMLRSHVLVMSFIGKDDMPAPLLKNVQLSESKARELYLQVIQYMRRMYQDARLVHADLSEFNMLYHGGGVYIIDVSQSVEHDHPHALEFLRKDCANVNDFFMRHSVAVMTVRELFEFVTDPSITHENMDAYLSKAMEIASQRTKEERSSQDHVDEEVFKRAYIPRTLNEVKNYERDMDIIMKLKEEDMAMNAQQDNILYQTVTGLKKDLSGVQKVPALLENQVEERTCSDSEDIGSSECSDTDSEEQGDHARPKKHTTDPDIDKKERKKMVKEAQREKRKNKIPKHVKKRKEKTAKTKKGK

Target: T1, N-terminally Strep/FLAG-tagged PPDPF (pancreatic progenitor differentiation and proliferation factor) (human) (UniProt Q9H3Y8)
T1 sequence: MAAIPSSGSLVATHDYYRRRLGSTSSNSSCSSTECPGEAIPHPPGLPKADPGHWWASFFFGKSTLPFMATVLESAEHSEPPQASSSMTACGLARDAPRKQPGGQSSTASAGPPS
Experiment: affinity purification with mass spectrometry; SILAC (K0/R0 against K8/R10, labels also switched) in HEK293T cells transfected with Strep/FLAG-PPDPF or a vector control; bait and associated proteins purified on StrepTactin resin, eluted with desthiobiotin; eluates mixed 1:1; Q-Exactive; n = 4

binding, binds:
CLNS1A (from UniProt P54105 1-237)
RBM10 (from UniProt P98175 1-930)
KCTD12 (endogenous, HEK293T) (from UniProt Q96CX2 1-325)
B1
B2
B3
B4

Results are given in words; binding and its absence hold for the method and conditions named. In cells and extracts the contact can be indirect. A yes stands for co-enrichment or nearness to the bait. Other partners may have been found. Where a sequence is shown, tags or fusion partners need not be part of it.
